The values that follow come from publication PMC3448731.

Results are given in words; binding and its absence hold for the method and conditions named. In cells and extracts the contact can be indirect. A result given as binding can be weak or reduced; the word gives no strength.

The assay deals with T1, Aquaporin-1, endogenous in rat kidney cortex (rat (endogenous in kidney cortex)) (UniProt P29975).
T1 sequence: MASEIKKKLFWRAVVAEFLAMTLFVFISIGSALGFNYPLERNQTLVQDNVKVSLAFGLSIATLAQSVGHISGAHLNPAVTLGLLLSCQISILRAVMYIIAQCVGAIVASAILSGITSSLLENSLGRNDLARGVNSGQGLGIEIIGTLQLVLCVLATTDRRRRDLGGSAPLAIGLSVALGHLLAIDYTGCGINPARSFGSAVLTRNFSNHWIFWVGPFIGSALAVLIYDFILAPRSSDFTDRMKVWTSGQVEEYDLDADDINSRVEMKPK
Description: co-IP; rat kidney cortex lysate, 0.5 mg/ml; immunoprecipitated with anti-AQP1 or anti-MHC antibody and protein A-agarose, blotted with anti-MHC or anti-AQP1; IgG as negative control.

For the substance “Myosin heavy chain, endogenous in rat kidney”, the binding entry is reported as “binds”.
